In experiment [1] the target is T1, Adnp (mouse (endogenous in P3 neocortex or hippocampus)) (UniProt Q9Z103).
T1 sequence: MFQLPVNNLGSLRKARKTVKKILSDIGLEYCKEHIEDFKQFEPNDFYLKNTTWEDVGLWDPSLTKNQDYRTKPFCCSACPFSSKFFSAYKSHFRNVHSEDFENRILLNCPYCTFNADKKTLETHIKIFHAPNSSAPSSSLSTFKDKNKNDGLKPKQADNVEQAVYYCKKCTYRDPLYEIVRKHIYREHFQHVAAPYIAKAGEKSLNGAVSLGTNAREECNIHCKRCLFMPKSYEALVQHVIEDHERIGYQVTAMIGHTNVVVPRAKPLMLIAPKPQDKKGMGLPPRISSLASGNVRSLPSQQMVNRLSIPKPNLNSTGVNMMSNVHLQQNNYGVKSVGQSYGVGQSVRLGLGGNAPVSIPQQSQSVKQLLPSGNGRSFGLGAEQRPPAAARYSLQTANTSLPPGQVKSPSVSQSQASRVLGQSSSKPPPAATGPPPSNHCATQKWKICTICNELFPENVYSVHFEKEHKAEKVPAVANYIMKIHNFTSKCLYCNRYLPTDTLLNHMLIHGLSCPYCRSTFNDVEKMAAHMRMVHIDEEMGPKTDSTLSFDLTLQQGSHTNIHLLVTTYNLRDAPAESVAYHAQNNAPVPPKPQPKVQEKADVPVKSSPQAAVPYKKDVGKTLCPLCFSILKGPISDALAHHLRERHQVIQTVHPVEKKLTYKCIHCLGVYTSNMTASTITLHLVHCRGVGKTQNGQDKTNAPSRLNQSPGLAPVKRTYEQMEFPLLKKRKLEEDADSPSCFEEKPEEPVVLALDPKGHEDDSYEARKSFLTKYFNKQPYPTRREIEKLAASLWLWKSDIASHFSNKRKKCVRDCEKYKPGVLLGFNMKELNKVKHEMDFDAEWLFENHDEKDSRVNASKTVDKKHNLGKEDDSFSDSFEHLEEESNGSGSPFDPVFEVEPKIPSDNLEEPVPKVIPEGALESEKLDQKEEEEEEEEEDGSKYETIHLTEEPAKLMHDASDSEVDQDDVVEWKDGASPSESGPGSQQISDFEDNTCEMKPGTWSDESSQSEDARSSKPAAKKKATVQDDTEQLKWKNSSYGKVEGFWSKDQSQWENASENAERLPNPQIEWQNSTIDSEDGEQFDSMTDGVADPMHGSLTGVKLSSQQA
Briefly: co-IP.

Sequences of proteins named here, by UniProt entry; tags and fusion partners are left off.
UniProt Q6PDQ2: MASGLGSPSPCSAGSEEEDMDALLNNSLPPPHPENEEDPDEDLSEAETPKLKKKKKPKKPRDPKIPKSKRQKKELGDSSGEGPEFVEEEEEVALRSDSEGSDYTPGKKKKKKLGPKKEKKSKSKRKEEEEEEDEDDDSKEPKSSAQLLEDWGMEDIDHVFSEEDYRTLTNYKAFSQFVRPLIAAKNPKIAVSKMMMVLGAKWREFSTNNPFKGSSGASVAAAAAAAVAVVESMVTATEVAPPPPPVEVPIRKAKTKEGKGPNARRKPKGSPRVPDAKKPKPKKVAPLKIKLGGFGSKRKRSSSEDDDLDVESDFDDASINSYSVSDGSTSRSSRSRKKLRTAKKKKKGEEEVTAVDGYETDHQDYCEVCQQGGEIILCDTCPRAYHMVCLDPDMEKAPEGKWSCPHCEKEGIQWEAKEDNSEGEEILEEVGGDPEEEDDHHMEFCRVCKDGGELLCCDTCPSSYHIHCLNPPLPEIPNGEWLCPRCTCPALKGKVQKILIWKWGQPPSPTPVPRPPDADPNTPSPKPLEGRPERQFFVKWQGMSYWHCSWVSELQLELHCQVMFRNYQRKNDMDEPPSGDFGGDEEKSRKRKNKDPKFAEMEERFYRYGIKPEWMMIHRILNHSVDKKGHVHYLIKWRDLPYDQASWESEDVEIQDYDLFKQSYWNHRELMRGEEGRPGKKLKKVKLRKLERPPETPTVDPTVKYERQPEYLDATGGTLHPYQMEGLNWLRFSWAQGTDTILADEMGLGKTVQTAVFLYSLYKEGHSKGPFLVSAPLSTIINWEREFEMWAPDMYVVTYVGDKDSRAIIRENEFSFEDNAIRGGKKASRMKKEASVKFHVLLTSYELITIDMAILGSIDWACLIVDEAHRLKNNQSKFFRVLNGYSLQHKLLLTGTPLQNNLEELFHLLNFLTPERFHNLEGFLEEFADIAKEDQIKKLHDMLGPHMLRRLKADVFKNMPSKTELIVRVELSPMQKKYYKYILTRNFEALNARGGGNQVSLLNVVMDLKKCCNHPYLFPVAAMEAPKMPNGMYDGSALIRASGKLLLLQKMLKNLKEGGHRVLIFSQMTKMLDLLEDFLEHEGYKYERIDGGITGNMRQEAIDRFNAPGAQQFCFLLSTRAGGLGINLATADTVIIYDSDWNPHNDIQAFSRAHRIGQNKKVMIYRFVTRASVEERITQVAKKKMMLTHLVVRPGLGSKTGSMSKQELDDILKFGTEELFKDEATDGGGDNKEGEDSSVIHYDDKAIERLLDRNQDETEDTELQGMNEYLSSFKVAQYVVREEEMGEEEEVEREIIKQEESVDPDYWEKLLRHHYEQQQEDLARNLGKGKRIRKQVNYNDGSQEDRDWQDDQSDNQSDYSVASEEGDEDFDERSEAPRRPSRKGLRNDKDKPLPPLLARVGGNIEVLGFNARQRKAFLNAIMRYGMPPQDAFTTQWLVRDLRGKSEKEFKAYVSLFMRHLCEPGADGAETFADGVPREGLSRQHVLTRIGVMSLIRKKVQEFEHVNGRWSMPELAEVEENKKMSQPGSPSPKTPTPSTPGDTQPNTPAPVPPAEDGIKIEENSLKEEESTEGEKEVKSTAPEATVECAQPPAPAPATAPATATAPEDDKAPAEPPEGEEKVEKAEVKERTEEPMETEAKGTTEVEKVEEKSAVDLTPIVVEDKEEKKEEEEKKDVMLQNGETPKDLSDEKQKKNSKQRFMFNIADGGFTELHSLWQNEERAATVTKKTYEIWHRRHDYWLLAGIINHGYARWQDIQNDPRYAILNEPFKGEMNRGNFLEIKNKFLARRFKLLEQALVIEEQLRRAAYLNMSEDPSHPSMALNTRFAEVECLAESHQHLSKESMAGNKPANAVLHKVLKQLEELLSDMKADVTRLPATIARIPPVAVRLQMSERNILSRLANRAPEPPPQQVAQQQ

In experiment [2] the target is Chd4 (mouse (endogenous in P3 neocortex or hippocampus)) (UniProt Q6PDQ2). Put plainly: co-IP.

These are yes or no findings as the source states them, for the method shown. Binding seen in cells or lysates may run through a third protein. Some binding calls cover weakened binding; strength is not graded here.

In the case of Chd4 (from UniProt Q6PDQ2 1-1915), the binding entry in experiment [1] is “binds”.

B1: Adnp (protein, UniProt Q9Z103 1-1108)
chain: MFQLPVNNLGSLRKARKTVKKILSDIGLEYCKEHIEDFKQFEPNDFYLKNTTWEDVGLWDPSLTKNQDYRTKPFCCSACPFSSKFFSAYKSHFRNVHSEDFENRILLNCPYCTFNADKKTLETHIKIFHAPNSSAPSSSLSTFKDKNKNDGLKPKQADNVEQAVYYCKKCTYRDPLYEIVRKHIYREHFQHVAAPYIAKAGEKSLNGAVSLGTNAREECNIHCKRCLFMPKSYEALVQHVIEDHERIGYQVTAMIGHTNVVVPRAKPLMLIAPKPQDKKGMGLPPRISSLASGNVRSLPSQQMVNRLSIPKPNLNSTGVNMMSNVHLQQNNYGVKSVGQSYGVGQSVRLGLGGNAPVSIPQQSQSVKQLLPSGNGRSFGLGAEQRPPAAARYSLQTANTSLPPGQVKSPSVSQSQASRVLGQSSSKPPPAATGPPPSNHCATQKWKICTICNELFPENVYSVHFEKEHKAEKVPAVANYIMKIHNFTSKCLYCNRYLPTDTLLNHMLIHGLSCPYCRSTFNDVEKMAAHMRMVHIDEEMGPKTDSTLSFDLTLQQGSHTNIHLLVTTYNLRDAPAESVAYHAQNNAPVPPKPQPKVQEKADVPVKSSPQAAVPYKKDVGKTLCPLCFSILKGPISDALAHHLRERHQVIQTVHPVEKKLTYKCIHCLGVYTSNMTASTITLHLVHCRGVGKTQNGQDKTNAPSRLNQSPGLAPVKRTYEQMEFPLLKKRKLEEDADSPSCFEEKPEEPVVLALDPKGHEDDSYEARKSFLTKYFNKQPYPTRREIEKLAASLWLWKSDIASHFSNKRKKCVRDCEKYKPGVLLGFNMKELNKVKHEMDFDAEWLFENHDEKDSRVNASKTVDKKHNLGKEDDSFSDSFEHLEEESNGSGSPFDPVFEVEPKIPSDNLEEPVPKVIPEGALESEKLDQKEEEEEEEEEDGSKYETIHLTEEPAKLMHDASDSEVDQDDVVEWKDGASPSESGPGSQQISDFEDNTCEMKPGTWSDESSQSEDARSSKPAAKKKATVQDDTEQLKWKNSSYGKVEGFWSKDQSQWENASENAERLPNPQIEWQNSTIDSEDGEQFDSMTDGVADPMHGSLTGVKLSSQQA
In the case of B1, the binding entry in experiment [2] is recorded as “binds”.

Values taken from doi:10.1101/2024.02.12.579820.
